Results from PMC4477473.
Construct, isoform or probe ends are uncertain for at least one entry. Tags and fusion partners may be left off the protein sequences shown.

Biological target: T1, Imp (IGF-II mRNA-binding protein) (UniProt Q9VZ69)
T1 sequence (looked up, limits assumed): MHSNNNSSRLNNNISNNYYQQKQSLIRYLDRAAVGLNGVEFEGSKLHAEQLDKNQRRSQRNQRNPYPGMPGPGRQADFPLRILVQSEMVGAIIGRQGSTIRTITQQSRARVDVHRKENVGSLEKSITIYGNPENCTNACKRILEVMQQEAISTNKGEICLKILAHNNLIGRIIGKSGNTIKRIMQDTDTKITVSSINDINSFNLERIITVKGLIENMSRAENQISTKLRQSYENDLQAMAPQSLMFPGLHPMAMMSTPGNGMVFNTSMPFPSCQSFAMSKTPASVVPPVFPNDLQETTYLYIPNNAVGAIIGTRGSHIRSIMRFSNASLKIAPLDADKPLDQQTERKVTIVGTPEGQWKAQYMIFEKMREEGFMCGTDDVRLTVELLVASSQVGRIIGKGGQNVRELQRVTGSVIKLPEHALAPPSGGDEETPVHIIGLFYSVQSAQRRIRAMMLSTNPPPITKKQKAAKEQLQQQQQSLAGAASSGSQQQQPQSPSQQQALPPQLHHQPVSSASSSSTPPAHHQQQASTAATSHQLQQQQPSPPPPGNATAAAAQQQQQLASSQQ
Test: EMSA
Details: oligomerization at increasing Imp, 20 mM Tris-HCl pH 7.8, 140 mM KCl, 2 mM MgCl2, 0.1% Triton X- (text cut), 100 ng E. coli tRNA, 10 ul, 30 min at 30 C, native PAGE in 90 mM Tris-borate pH 8.3, recombinant protein, protein details: His tag (pET28a, Ni-agarose), label: 32P, probe letters rebuilt from the primers and the genome

Sequence | binding result (Imp 12.5-100 nM (Fig. 2c), 2.5-67.5 nM (Fig. S2i)) | binding result (Imp 12.5-100 nM)
GGGCAUUCACUGAUGCUUUGCGCAGGGGAGGAUUGCCAAGGACACACAAUUAACACAGAAAAACAAAGCGAAAAAUCUACGGCUUUUUCUUUUCUAAUCCCAGAAACAUCAACAAAAGCAAUUUCAAUCAUUUAAUUUCGAACGCAUUUACGCAAGUACACGAAGCAAAAGAAGAAAGUCACGCAAUCAAAUUCUGCAGUCC [pAbp 3'UTR segment] | binds | 
GGGUUGAAACACACAAACACCCACACUACACACACACACACCCACUUUCCCGCCAGCAAUCCCAUAAAAUAGUUAUUUAAAUAGUUUCACCUUUUGUUUUGUUUAACAAAACACUAAACAACAAGCAACCAGAACAGAAACGACAACAAACAAACAAAAAACAAAACACACGAAACGCGUAAUCAAAGCUUUGAUUCAAUGUCU [sqd 3'UTR segment] |  | binds
